Results deposited as PubChem BioAssay AID1259263 (Sanger Institute, 2017).
Aim: 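Kinase knock-downs that boost drug killing of colorectal cancer cells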 (follow-up of hits). Cells: SW1463 human colorectal cancer cell line. Knock-down reagent: single siRNA against human genes. Treatment: anchor drugs BYL719 at 1 µM, cetuximab at 5 µg/ml or trametinib at 10 nM, or DMSO vehicle, added one day after siRNA transfection. Read-out: 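Viability relative to a non-targeting siRNA control, averaged over replicates, plus a synergy score contrasting measured with expected viability loss for knock-down and drug combined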. Scale: synergy score with trametinib and synergy score with BYL719 and synergy score with cetuximab: higher = stronger synthetic lethal effect with the drug. Hit rule: 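Called active if the synergy score is above 0.10 for one or more of the three anchor drugs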. Calls: active = synergy with at least one drug; inactive = no synergy with any drug.
The deposit covers 160 reagents; below is a part drawn at random. 101 of them (63%) were called active. 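Drug doses chosen to kill few cells alone; each row is one siRNA, and a gene counts as confirmed only if two or more siRNAs show synergy.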 The numbers tell different reagents against one gene apart. Not all columns of the deposit are shown. No sequences are given here. Not given: the amount of reagent, the time to read-out.

CHD4 (GeneID 1108) #1: synergy score with trametinib = 0.161; synergy score with BYL719 = 0.31; synergy score with cetuximab = -0.166; activity call = active
CHD4 (GeneID 1108) #2: synergy score with trametinib = 0.0677; synergy score with BYL719 = 0.106; synergy score with cetuximab = -0.0965
CHD4 (GeneID 1108) #3: synergy score with trametinib = -0.0675; synergy score with BYL719 = -0.0658; synergy score with cetuximab = -0.0306; activity call = inactive
CHD4 (GeneID 1108) #4: synergy score with trametinib = 0.25; synergy score with BYL719 = -0.0902; synergy score with cetuximab = 0.218; activity call = active
COASY (GeneID 80347) #1: synergy score with trametinib = -0.0624; synergy score with BYL719 = -0.152; synergy score with cetuximab = -0.212; activity call = inactive
COASY (GeneID 80347) #2: synergy score with trametinib = 0.0412; synergy score with BYL719 = 0.0109; synergy score with cetuximab = -0.0389; activity call = inactive
COASY (GeneID 80347) #3: synergy score with trametinib = 0.0322; synergy score with BYL719 = 0.0979; synergy score with cetuximab = -0.00843; activity call = inactive
COASY (GeneID 80347) #4: synergy score with trametinib = 0.0213; synergy score with BYL719 = -0.114; synergy score with cetuximab = -0.132; activity call = inactive
NLK (GeneID 51701) #1: synergy score with trametinib = -0.0303; synergy score with BYL719 = 0.213; synergy score with cetuximab = 0.0268
NLK (GeneID 51701) #2: synergy score with trametinib = -0.168; synergy score with BYL719 = -0.112; synergy score with cetuximab = -0.12; activity call = inactive
NLK (GeneID 51701) #3: synergy score with trametinib = -0.0272; synergy score with BYL719 = -0.176; synergy score with cetuximab = 0.398
NLK (GeneID 51701) #4: synergy score with trametinib = -0.118; synergy score with BYL719 = -0.101; synergy score with cetuximab = -0.00201; activity call = inactive
GTF2H1 (GeneID 2965) #1: synergy score with trametinib = 0.00918; synergy score with BYL719 = 0.099; synergy score with cetuximab = -0.125; activity call = inactive
GTF2H1 (GeneID 2965) #2: synergy score with trametinib = 0.206; synergy score with BYL719 = 0.0288; synergy score with cetuximab = 0.0129; activity call = active
GTF2H1 (GeneID 2965) #3: synergy score with trametinib = 0.378; synergy score with BYL719 = 0.543; synergy score with cetuximab = 0.0386; activity call = active
GTF2H1 (GeneID 2965) #4: synergy score with trametinib = 0.288; synergy score with BYL719 = 0.197; synergy score with cetuximab = 0.126; activity call = active
MAPK4 (GeneID 5596) #1: synergy score with trametinib = 0.0427; synergy score with BYL719 = 0.0622; synergy score with cetuximab = -0.0947; activity call = inactive
MAPK4 (GeneID 5596) #2: synergy score with trametinib = 0.152; synergy score with BYL719 = 0.0396; synergy score with cetuximab = -0.127; activity call = active
MAPK4 (GeneID 5596) #3: synergy score with trametinib = 0.4; synergy score with BYL719 = 0.351; synergy score with cetuximab = 0.238; activity call = active
MAPK4 (GeneID 5596) #4: synergy score with trametinib = -0.0118; synergy score with BYL719 = 0.0709; synergy score with cetuximab = -0.02; activity call = inactive
RPS6KA4 (GeneID 8986) #1: synergy score with trametinib = -0.0595; synergy score with BYL719 = 0.0374; synergy score with cetuximab = -0.0153; activity call = inactive
RPS6KA4 (GeneID 8986) #2: synergy score with trametinib = 0.425; synergy score with BYL719 = 0.0076; synergy score with cetuximab = -0.0898; activity call = active
RPS6KA4 (GeneID 8986) #3: synergy score with trametinib = 0.25; synergy score with BYL719 = 0.0147; synergy score with cetuximab = -0.0443; activity call = active
RPS6KA4 (GeneID 8986) #4: synergy score with trametinib = 0.297; synergy score with BYL719 = -0.042; synergy score with cetuximab = -0.0915; activity call = active
